Measurements: patent publication US7067657B2, “Thiazolopyrimidine derivatives and use thereof as antagonists of the CX3 CR1 receptor” (AstraZeneca AB, priority 2001, dated 2006)
Some results were stated once for a whole list of compounds, not compound by compound.

Molecular target: T1, mouse fractalkine receptor (mCX3CR1) (Mus musculus, UniProt Q9Z0D9)
T1 construct: expressed in transfected cells; membranes used
T1 sequence (Q9Z0D9 1-354): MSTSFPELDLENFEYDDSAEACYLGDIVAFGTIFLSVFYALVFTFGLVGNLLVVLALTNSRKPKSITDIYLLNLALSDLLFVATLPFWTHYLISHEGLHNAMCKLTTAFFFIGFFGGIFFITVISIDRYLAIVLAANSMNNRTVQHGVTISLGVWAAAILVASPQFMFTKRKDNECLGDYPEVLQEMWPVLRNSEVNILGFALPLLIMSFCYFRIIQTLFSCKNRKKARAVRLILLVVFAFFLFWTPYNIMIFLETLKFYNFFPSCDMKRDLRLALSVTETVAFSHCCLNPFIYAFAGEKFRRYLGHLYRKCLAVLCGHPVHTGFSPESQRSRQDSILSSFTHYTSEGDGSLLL
Assay: SPA-ligand binding assay ([125I]-fractalkine competition)
Conditions: 100 pM [125I]-fractalkine, mCX3CR1/HEK293 membranes, room temperature 2 h

| SMILES | Ki |
| --- | --- |
| CCCCC(CO)Nc1nc(SCc2ccccc2)nc2nc(N)sc12 (racemic) [Example 2, (±)-2-(2-Amino-5-phenylmethylthio-thiazolo[4,5-d]pyrimidin-7-ylamino)-hexan-1-ol] | < 10 µM |
| CCCCC(CO)Nc1nc(SCc2cccc(F)c2F)nc2nc(N)sc12 (racemic) [Example 40, (±)-2-[2-Amino-5-(2,3-difluorophenylmethylthio)-thiazolo[4,5-d]pyrimidin-7-ylamino]-hexan-1-ol] | < 10 µM |
| CC(C)C[C@H](CO)Nc1nc(SCc2ccccc2)nc2nc(NCC(N)=O)sc12 [Example 3, (R)-2-[5-Phenylmethylthio-7-(1-hydroxymethyl-3-methyl-butylamino)-thiazolo[4,5-d]pyrimidin-2-ylamino]-acetamide] | < 10 µM |
| CC(C)C[C@H](CO)Nc1nc(SCc2ccccc2)nc2nc(NC3CCNCC3)sc12 [Example 4, (R)-2-[5-Phenylmethylthio-2-(piperidin-4-ylamino)-thiazolo[4,5-d]pyrimidin-7-ylamino]-4-methyl-pentan-1-ol] | < 10 µM |
| CC(C)C[C@H](CO)Nc1nc(SCc2ccccc2I)nc2nc(N)sc12 [Example 10, (R)-2-[2-Amino-5-(2-iodophenylmethylthio)-thiazolo[4,5-d]pyrimidin-7-ylamino]-4-methyl-pentan-1-ol] | < 10 µM |
| CC(C)C[C@H](CO)Nc1nc(SCc2ccc(F)cc2F)nc2nc(N)sc12 [Example 11, (R)-2-[2-Amino-5-(2,4-difluorophenylmethylthio)-thiazolo[4,5-d]pyrimidin-7-ylamino]-4-methyl-pentan-1-ol] | < 10 µM |
| CC(C)C[C@H](CO)Nc1nc(SCc2cc(F)ccc2F)nc2nc(N)sc12 [Example 12, (R)-2-[2-Amino-5-(2,5-difluorophenylmethylthio)-thiazolo[4,5-d]pyrimidin-7-ylamino]-4-methyl-pentan-1-ol] | < 10 µM |
| CC(C)C[C@H](CO)Nc1nc(SCc2c(F)cccc2F)nc2nc(N)sc12 [Example 13, (R)-2-[2-Amino-5-(2,6-difluorophenylmethylthio)-thiazolo[4,5-d]pyrimidin-7-ylamino]-4-methyl-pentan-1-ol] | < 10 µM |
| CC(C)C[C@H](CO)Nc1nc(SCc2ccc(F)c(F)c2)nc2nc(N)sc12 [Example 14, (R)-2-[2-Amino-5-(3,4-difluorophenylmethylthio)-thiazolo[4,5-d]pyrimidin-7-ylamino]-4-methyl-pentan-1-ol] | < 10 µM |
| CC(C)C[C@H](CO)Nc1nc(SCc2cc(F)cc(F)c2)nc2nc(N)sc12 [Example 15, (R)-2-[2-Amino-5-(3,5-difluorophenylmethylthio)-thiazolo[4,5-d]pyrimidin-7-ylamino]-4-methyl-pentan-1-ol] | < 10 µM |
| CC(C)C[C@H](CO)Nc1nc(SCc2cccc(Cl)c2F)nc2nc(N)sc12 [Example 16, (R)-2-[2-Amino-5-(3-chloro-2-fluorophenylmethylthio)-thiazolo[4,5-d]pyrimidin-7-ylamino]-4-methyl-pentan-1-ol] | < 10 µM |
| CC(C)C[C@H](CO)Nc1nc(SCc2c(F)cccc2Cl)nc2nc(N)sc12 [Example 17, (R)-2-[2-Amino-5-(2-chloro-6-fluorophenylmethylthio)-thiazolo[4,5-d]pyrimidin-7-ylamino]-4-methyl-pentan-1-ol] | < 10 µM |
| CC(C)C[C@H](CO)Nc1nc(SCc2cc(F)ccc2Br)nc2nc(N)sc12 [Example 19, (R)-2-[2-Amino-5-(2-bromo-5-fluorophenylmethylthio)-thiazolo[4,5-d]pyrimidin-7-ylamino]-4-methyl-pentan-1-ol] | < 10 µM |
| CC(C)C[C@H](CO)Nc1nc(SCc2cccc(Cl)c2Cl)nc2nc(N)sc12 [Example 20, (R)-2-[2-Amino-5-(2,3-dichlorophenylmethylthio)-thiazolo[4,5-d]pyrimidin-7-ylamino]-4-methyl-pentan-1-ol] | < 10 µM |
| CC(C)C[C@H](CO)Nc1nc(SCc2cc3c(cc2Cl)OCO3)nc2nc(N)sc12 [Example 21, (R)-2-[2-Amino-5-(2-chloro-4,5-methylenedioxyphenylmethylthio)-thiazolo[4,5-d]pyrimidin-7-ylamino]-4-methyl-pentan-1-ol] | < 10 µM |
| COc1cccc(CSc2nc(N[C@@H](CO)CC(C)C)c3sc(N)nc3n2)c1 [Example 23, (R)-2-[2-Amino-5-(3-methoxyphenylmethylthio)-thiazolo[4,5-d]pyrimidin-7-ylamino]-4-methyl-pentan-1-ol] | < 10 µM |
| COc1ccc(CSc2nc(N[C@@H](CO)CC(C)C)c3sc(N)nc3n2)cc1 [Example 24, (R)-2-[2-Amino-5-(4-methoxyphenylmethylthio)-thiazolo[4,5-d]pyrimidin-7-ylamino]-4-methyl-pentan-1-ol] | < 10 µM |
| Cc1cccc(CSc2nc(N[C@@H](CO)CC(C)C)c3sc(N)nc3n2)c1F [Example 25, (R)-2-[2-Amino-5-(2-fluoro-3-methylphenylmethylthio)-thiazolo[4,5-d]pyrimidin-7-ylamino]-4-methyl-pentan-1-ol] | < 10 µM |
| Cc1ccc(Br)c(CSc2nc(N[C@@H](CO)CC(C)C)c3sc(N)nc3n2)c1 [Example 27, (R)-2-[2-Amino-5-(2-bromo-5-methylphenylmethylthio)-thiazolo[4,5-d]pyrimidin-7-ylamino]-4-methyl-pentan-1-ol] | < 10 µM |
| COC(=O)c1cccc(CSc2nc(N[C@@H](CO)CC(C)C)c3sc(N)nc3n2)c1 [Example 28, (R)-2-[2-Amino-5-(3-methoxycarbonylphenylmethylthio)-thiazolo[4,5-d]pyrimidin-7-ylamino]-4-methyl-pentan-1-ol] | < 10 µM |
| CC(C)C[C@H](CO)Nc1nc(SCc2ccc(C(F)(F)F)cc2)nc2nc(N)sc12 [Example 29, (R)-2-[2-Amino-5-(4-trifluoromethylphenylmethylthio)-thiazolo[4,5-d]pyrimidin-7-ylamino]-4-methyl-pentan-1-ol] | < 10 µM |
| CC(C)C[C@H](CO)Nc1nc(SCc2ccccc2C(F)(F)F)nc2nc(N)sc12 [Example 30, (R)-2-[2-Amino-5-(2-trifluoromethylphenylmethylthio)-thiazolo[4,5-d]pyrimidin-7-ylamino]4-methyl-pentan-1-ol] | < 10 µM |
| Cc1ccc(CSc2nc(N[C@@H](CO)CC(C)C)c3sc(N)nc3n2)cc1 [Example 32, (R)-2-[2-Amino-5-(4-methylphenylmethylthio)-thiazolo[4,5-d]pyrimidin-7-ylamino]-4-methyl-pentan-1-ol] | < 10 µM |
| Cc1cccc(CSc2nc(N[C@@H](CO)CC(C)C)c3sc(N)nc3n2)c1 [Example 33, (R)-2-[2-Amino-5-(3-methylphenylmethylthio)-thiazolo[4,5-d]pyrimidin-7-ylamino]-4-methyl-pentan-1-ol] | < 10 µM |
| CC(C)C[C@H](CO)Nc1nc(SCc2cccc(C(F)(F)F)c2)nc2nc(N)sc12 [Example 36, (R)-2-[2-Amino-5-(3-trifluoromethylphenylmethylthio)-thiazolo[4,5-d]pyrimidin-7-ylamino]-4-methyl-pentan-1-ol] | < 10 µM |
| Cc1cccc(CSc2nc(N[C@@H](CO)CC(C)C)c3sc(N)nc3n2)c1[N+](=O)[O-] [Example 38, (R)-2-[2-Amino-5-(3-methyl-2-nitrophenylmethylthio)-thiazolo[4,5-d]pyrimidin-7-ylamino]-4-methyl-pentan-1-ol] | < 10 µM |
| Nc1nc2nc(SCc3ccccc3)nc(NC3(CO)CCCC3)c2s1 [Example 39, N-(2-Amino-5-phenylmethylthio-thiazolo[4,5-d]pyrimidin-7-yl)-1-hydroxymethyl-cyclopentylamine] | < 10 µM |
